No constants are given. Whether binding was seen depends on the method and setting. Binding seen in cells or lysates may run through a third protein. Here binding means that the protein was enriched with, or labelled near, the bait; the list need not be complete. For part of these data: A no says only that the protein was not detected with the bait.
B1: Bud21 (protein, UniProt Q08492 1-214)
chain: MSNGHVKFDADESQASASAVTDRQDDVLVISKKDKEVHSSSDEESDDDDAPQEEGLHSGKSEVESQITQREEAIRLEQSQLRSKRRKQNELYAKQKKSVNETEVTDEVIAELPEELLKNIDQKDEGSTQYSSSRHVTFDKLDESDENEEALAKAIKTKKRKTLKNLRKDSVKRGKFRVQLLSTTQDSKTLPPKKESSIIRSKDRWLNRKALNKG
B2: Mpp10 (protein, UniProt P47083 1-593)
chain: MSELFGVLKSNAGRIILKDPSATSKDVKAYIDSVINTCKNGSITKKAELDEITVDGLDANQVWWQVKLVLDSIDGDLIQGIQELKDVVTPSHNLSDGSTLNSSSGEESELEEAESVFKEKQMLSADVSEIEEQSNDSLSENDEEPSMDDEKTSAEAAREEFAEEKRISSGQDERHSSPDPYGINDKFFDLEKFNRDTLAAEDSNEASEGSEDEDIDYFQDMPSDDEEEEAIYYEDFFDKPTKEPVKKHSDVKDPKEDEELDEEEHDSAMDKVKLDLFADEEDEPNAEGVGEASDKNLSSFEKQQIEIRKQIEQLENEAVAEKKWSLKGEVKAKDRPEDALLTEELEFDRTAKPVPVITSEVTESLEDMIRRRIQDSNFDDLQRRTLLDITRKSQRPQFELSDVKSSKSLAEIYEDDYTRAEDESALSEELQKAHSEISELYANLVYKLDVLSSVHFVPKPASTSLEIRVETPTISMEDAQPLYMSNASSLAPQEIYNVGKAEKDGEIRLKNGVAMSKEELTREDKNRLRRALKRKRSKANLPNVNKRSKRNDVVDTLSKAKNITVINQKGEKKDVSGKTKKSRSGPDSTNIKL
B3: Imp4 (protein, UniProt P53941 1-290)
chain: MLRRQARERREYLYRKAQELQDSQLQQKRQIIKQALAQGKPLPKELAEDESLQKDFRYDQSLKESEEADDLQVDDEYAATSGIMDPRIIVTTSRDPSTRLSQFAKEIKLLFPNAVRLNRGNYVMPNLVDACKKSGTTDLVVLHEHRGVPTSLTISHFPHGPTAQFSLHNVVMRHDIINAGNQSEVNPHLIFDNFTTALGKRVVCILKHLFNAGPKKDSERVITFANRGDFISVRQHVYVRTREGVEIAEVGPRFEMRLFELRLGTLENKDADVEWQLRRFIRTANKKDYL
B4: Bms1 (protein, UniProt Q08965 1-1183)
chain: MEQSNKQHRKAKEKNTAKKKLHTQGHNAKAFAVAAPGKMARTMQRSSDVNERKLHVPMVDRTPEDDPPPFIVAVVGPPGTGKTTLIRSLVRRMTKSTLNDIQGPITVVSGKHRRLTFLECPADDLNAMIDIAKIADLVLLLIDGNFGFEMETMEFLNIAQHHGMPRVLGVATHLDLFKSQSTLRASKKRLKHRFWTEVYQGAKLFYLSGVINGRYPDREILNLSRFISVMKFRPLKWRNEHPYMLADRFTDLTHPELIETQGLQIDRKVAIYGYLHGTPLPSAPGTRVHIAGVGDFSVAQIEKLPDPCPTPFYQQKLDDFEREKMKEEAKANGEITTASTTRRRKRLDDKDKLIYAPMSDVGGVLMDKDAVYIDIGKKNEEPSFVPGQERGEGEKLMTGLQSVEQSIAEKFDGVGLQLFSNGTELHEVADHEGMDVESGEESIEDDEGKSKGRTSLRKPRIYGKPVQEEDADIDNLPSDEEPYTNDDDVQDSEPRMVEIDFNNTGEQGAEKLALETDSEFEESEDEFSWERTAANKLKKTESKKRTWNIGKLIYMDNISPEECIRRWRGEDDDSKDESDIEEDVDDDFFRKKDGTVTKEGNKDHAVDLEKFVPYFDTFEKLAKKWKSVDAIKERFLGAGILGNDNKTKSDSNEGGEELYGDFEDLEDGNPSEQAEDNSDKESEDEDENEDTNGDDDNSFTNFDAEEKKDLTMEQEREMNAAKKEKLRAQFEIEEGENFKEDDENNEYDTWYELQKAKISKQLEINNIEYQEMTPEQRQRIEGFKAGSYVRIVFEKVPMEFVKNFNPKFPIVMGGLLPTEIKFGIVKARLRRHRWHKKILKTNDPLVLSLGWRRFQTLPIYTTTDSRTRTRMLKYTPEHTYCNAAFYGPLCSPNTPFCGVQIVANSDTGNGFRIAATGIVEEIDVNIEIVKKLKLVGFPYKIFKNTAFIKDMFSSAMEVARFEGAQIKTVSGIRGEIKRALSKPEGHYRAAFEDKILMSDIVILRSWYPVRVKKFYNPVTSLLLKEKTEWKGLRLTGQIRAAMNLETPSNPDSAYHKIERVERHFNGLKVPKAVQKELPFKSQIHQMKPQKKKTYMAKRAVVLGGDEKKARSFIQKVLTISKAKDSKRKEQKASQRKERLKKLAKMEEEKSQRDKEKKKEYFAQNGKRTTMGGDDESRPRKMRR
B5: Dbp8 (protein, UniProt P38719 1-431)
chain: MADFKSLGLSKWLTESLRAMKITQPTAIQKACIPKILEGRDCIGGAKTGSGKTIAFAGPMLTKWSEDPSGMFGVVLTPTRELAMQIAEQFTALGSSMNIRVSVIVGGESIVQQALDLQRKPHFIIATPGRLAHHIMSSGDDTVGGLMRAKYLVLDEADILLTSTFADHLATCISALPPKDKRQTLLFTATITDQVKSLQNAPVQKGKPPLFAYQVESVDNVAIPSTLKIEYILVPEHVKEAYLYQLLTCEEYENKTAIIFVNRTMTAEILRRTLKQLEVRVASLHSQMPQQERTNSLHRFRANAARILIATDVASRGLDIPTVELVVNYDIPSDPDVFIHRSGRTARAGRIGDAISFVTQRDVSRIQAIEDRINKKMTETNKVHDTAVIRKALTKVTKAKRESLMAMQKENFGERKRQQKKKQNDGKSLRS
B6: Esf2 (protein, UniProt P53743 1-316)
chain: MSEKVNSDFEDFSSDEETDQHNVLIQTKKKISSKDDIFSKKVEDIESENESDIEEEQKQEEKEDVEQPDKENGEKLDREVEEQASSTTSLDLKTEKLRQLVKSKAAKKSKHKTGVVYFSSIPPYMKPAKMRQILTRFGEVDRLFLKKEDDQKYKQRVKGGGNKKNKYEEGWAEFIRKRDAKLCAETLNGNIIGGKKGTFYHDDILNVKYLPGFKWADLTEQIARENDIRQAKLEMEISQANKLNAEFIRNVEQSKMIQNIKNSRKRAGKEGESADSHPHREFKQRRVETSRANAPSDIKQQSSGSKDLGNVLTNLL
B7: Esf1 (protein, UniProt Q06344 1-628)
chain: MAGENPKKEGVDARFAGIYSDPKFKNTKTKDHKIKLDSRFSKKDLEVQHKSKVDKYGRKIKNAQNNRELEDFDKYFEKEAENDEDSEVNAKTVVDRARGEVPDDYVSSSDEFTSSDSESSGESEVESEEENEVEIENAKPESGDISKNLAVVNLDWDHVKSEDLMITFSSFVPKGGKIERVAIYPSEFGKERMQREEVEGPPKELFQKKNKNKTSKKKKTDDSDSDMDIGIKDLYEEGDADKDVDSRALRQYQLDRLRYYYAIVYCSDTTTSKAIYDNCDGTEYESTANMFDLRYVPDGMTFDDDVRDECSILPKNYRPHQFSTDALQHSSVKLTWDETPADRVEVAKRAFTQKEIDDMDFKAYLASDSDESDGQVDEEAKNKLKSLVGDFGFNSKKETPNDEDEEVDMEITFTPALEGGNEKSSEDKEETTIEKIRRKEKERRKARKQKVKELKQQSEKDKKSKLKSVNKKHTNDEEEIEKNAKSKAELELLMDDDDDTETQGTINNKAHFNMNEILRSEKEKHKKGRYQKKERIVEDTFTPDLEDPRFKEVFEDHDFAIDPTQPEFKGTQAMSKILKERSKRVKNKKRKLGGSENNMTNNADDNEDIGNLVNKLKKKSKSSKKVKV
B8: Efg1 (protein, UniProt Q3E705 1-233)
chain: MAKLQRKRSKALGSSLEMSQIMDAGTNKIKRRIRDLERLLKKKKDILPSTVIIEKERNLQALRLELQNNELKNKIKANAKKYHMVRFFEKKKALRKYNRLLKKIKESGADDKDLQQKLRATKIELCYVINFPKTEKYIALYPNDTPSTDPKGVELTNLRREQFLKLVAERMDANTLNVSFEEILKGKKLDEDSIGLTLSPDKDHEDGSQVSPTQDRKELDQVVGEDEKDDFFE
B9: Nop6 (protein, UniProt Q07623 1-225)
chain: MGSEEDKKLTKKQLKAQQFRKSKEEKDQEKDVKKEQAPEGKRPNSAAGNDGEEPVKKKRKTRRGRGGKGKNGKKGNRFIVFVGSLPRDITAVELQNHFKNSSPDQIRLRADKGIAFLEFDADKDRTGIQRRMDIALLQHGTLLKEKKINVELTVGGGGNSQERLEKLKNKNIKLDEERKERLTKMINDGNQKKIAKTTATAAQTSGTDNKPVPAGIHPDRAKLLK
B10: Cms1 (protein, UniProt Q07897 1-291)
chain: MSNPDDLDDGLAYDFDAEHEVIFDAKDGSPPTKKVQKRSIEQDDDDVDDIDGKKEERNSEDDSNRPISKRQKKLQKKSKLIEKKKEESQYIVSQRKALPASSPEKIIEYLTTLIREKNPDLSVLELEELYFKRNDFLSTEKFDAERRLSNFPAFIQKFSVAPKKIVFSMSNIRVADVYRSLNGGKNCVKLFSKSKLKDDIATVERLLTDSSKKSNKNKDSLYFIATPTRMQKIIEATDLLFQGKEKLDIILDASYLDPKDNTILSFENAAVLCQVLKTFLNKKSSVKILLY

Sequences of proteins named here, by UniProt entry; tags and fusion partners are left off.
UniProt P42945: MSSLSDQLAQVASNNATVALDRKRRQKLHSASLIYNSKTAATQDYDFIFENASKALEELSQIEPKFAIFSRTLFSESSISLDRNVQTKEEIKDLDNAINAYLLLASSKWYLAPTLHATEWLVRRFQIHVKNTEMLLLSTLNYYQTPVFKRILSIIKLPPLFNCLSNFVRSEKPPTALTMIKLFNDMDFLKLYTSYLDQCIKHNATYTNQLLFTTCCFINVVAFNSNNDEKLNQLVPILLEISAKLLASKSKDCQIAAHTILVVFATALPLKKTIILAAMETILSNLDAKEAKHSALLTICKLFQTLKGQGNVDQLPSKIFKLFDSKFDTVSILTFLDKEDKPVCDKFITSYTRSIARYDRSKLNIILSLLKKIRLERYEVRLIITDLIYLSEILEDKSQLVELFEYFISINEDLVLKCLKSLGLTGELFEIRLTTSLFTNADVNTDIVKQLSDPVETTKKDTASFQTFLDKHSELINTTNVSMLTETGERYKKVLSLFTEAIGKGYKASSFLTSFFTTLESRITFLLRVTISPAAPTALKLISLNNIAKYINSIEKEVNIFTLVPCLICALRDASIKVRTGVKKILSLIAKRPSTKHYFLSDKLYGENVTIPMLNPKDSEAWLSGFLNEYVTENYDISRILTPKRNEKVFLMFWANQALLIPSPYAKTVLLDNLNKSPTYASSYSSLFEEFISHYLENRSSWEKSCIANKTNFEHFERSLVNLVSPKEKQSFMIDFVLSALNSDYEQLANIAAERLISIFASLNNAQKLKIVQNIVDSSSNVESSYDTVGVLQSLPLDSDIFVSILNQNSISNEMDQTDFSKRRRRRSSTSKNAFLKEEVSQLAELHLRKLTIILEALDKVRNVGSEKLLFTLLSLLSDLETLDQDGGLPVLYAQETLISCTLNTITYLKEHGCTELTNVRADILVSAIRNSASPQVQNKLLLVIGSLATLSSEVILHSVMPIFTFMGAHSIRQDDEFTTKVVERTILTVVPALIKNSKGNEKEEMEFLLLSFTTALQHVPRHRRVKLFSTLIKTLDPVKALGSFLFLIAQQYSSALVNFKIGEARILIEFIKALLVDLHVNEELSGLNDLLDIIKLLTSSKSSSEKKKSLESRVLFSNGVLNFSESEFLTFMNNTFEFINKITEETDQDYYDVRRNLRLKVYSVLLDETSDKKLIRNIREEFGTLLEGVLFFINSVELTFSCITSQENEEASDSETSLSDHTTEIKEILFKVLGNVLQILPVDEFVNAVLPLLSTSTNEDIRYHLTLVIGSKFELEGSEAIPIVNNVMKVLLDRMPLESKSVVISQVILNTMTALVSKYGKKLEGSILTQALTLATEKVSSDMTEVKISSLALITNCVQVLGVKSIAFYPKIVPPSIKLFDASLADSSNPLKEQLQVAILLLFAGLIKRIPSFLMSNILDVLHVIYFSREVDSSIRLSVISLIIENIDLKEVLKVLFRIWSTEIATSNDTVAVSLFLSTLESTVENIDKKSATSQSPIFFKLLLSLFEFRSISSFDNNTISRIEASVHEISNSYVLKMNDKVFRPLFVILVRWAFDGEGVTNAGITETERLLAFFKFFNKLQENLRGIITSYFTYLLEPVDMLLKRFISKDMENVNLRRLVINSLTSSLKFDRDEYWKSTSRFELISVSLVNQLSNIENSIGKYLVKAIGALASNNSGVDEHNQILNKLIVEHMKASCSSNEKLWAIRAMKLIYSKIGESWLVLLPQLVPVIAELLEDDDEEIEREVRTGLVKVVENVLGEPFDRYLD
UniProt P20448: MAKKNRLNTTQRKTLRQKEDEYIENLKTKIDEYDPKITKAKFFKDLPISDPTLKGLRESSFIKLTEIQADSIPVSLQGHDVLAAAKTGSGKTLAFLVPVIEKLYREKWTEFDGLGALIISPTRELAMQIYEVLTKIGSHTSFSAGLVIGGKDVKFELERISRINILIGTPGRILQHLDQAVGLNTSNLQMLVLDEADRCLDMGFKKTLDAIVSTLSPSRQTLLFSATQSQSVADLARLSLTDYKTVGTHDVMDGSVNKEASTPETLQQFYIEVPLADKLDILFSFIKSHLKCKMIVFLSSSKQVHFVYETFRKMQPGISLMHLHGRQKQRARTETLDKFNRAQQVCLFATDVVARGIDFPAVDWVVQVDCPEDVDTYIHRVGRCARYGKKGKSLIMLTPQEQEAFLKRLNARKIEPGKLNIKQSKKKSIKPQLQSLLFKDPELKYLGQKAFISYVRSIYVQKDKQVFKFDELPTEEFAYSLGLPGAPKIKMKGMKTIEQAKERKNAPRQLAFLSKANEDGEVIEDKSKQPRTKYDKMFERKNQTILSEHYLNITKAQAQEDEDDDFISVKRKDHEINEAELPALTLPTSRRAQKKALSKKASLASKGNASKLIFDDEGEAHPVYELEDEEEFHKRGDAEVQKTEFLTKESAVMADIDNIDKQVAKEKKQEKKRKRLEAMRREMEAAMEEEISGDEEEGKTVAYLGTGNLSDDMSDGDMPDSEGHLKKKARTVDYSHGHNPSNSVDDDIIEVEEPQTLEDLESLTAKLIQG

target: Utp10 with a C-terminal streptavidin-binding-peptide tag (S. cerevisiae) (UniProt P42945); assay: affinity purification with mass spectrometry; particles on MS2-tagged 5' ETS, 5' ETS-18S 5'-domain and 5' ETS-18S central-domain mimics in strain Y186; tandem purification by MS2-3C-GFP (anti-GFP nanobody beads, 3C elution) then Utp10-SBP on streptavidin resin, biotin elution; 50 mM Tris-HCl pH 7.5, 150 mM NaCl, 5 mM MgCl2, 4°C

Row | binding | Molecule
1 | binds | B1
2 | binds | B2
3 | binds | B3

target: Utp10 with a C-terminal streptavidin-binding-peptide tag (S. cerevisiae) (UniProt P42945); assay: condition: only with the pre-rRNA mimic lacking the central domain; affinity purification with mass spectrometry; truncated pre-rRNA mimic lacking the central domain (5' ETS-18S Δ central) in strain Y186; tandem purification by MS2-3C-GFP then Utp10-SBP on streptavidin resin; label-free quantification against 5' ETS-18S 3' minor

Row | binding | Molecule
4 | no binding | B4

target: Utp10 with a C-terminal streptavidin-binding-peptide tag (S. cerevisiae) (UniProt P42945); assay: affinity purification with mass spectrometry; truncated pre-rRNA mimic lacking the central domain (5' ETS-18S Δ central) in strain Y186; tandem purification by MS2-3C-GFP then Utp10-SBP on streptavidin resin; label-free quantification against 5' ETS-18S 3' minor

Row | binding | Molecule
5 | binds | Dbp4 (from UniProt P20448 1-770)
6 | binds | B5
7 | binds | B6
8 | binds | B7
9 | binds | B8
10 | binds | B9
11 | binds | B10

target: Utp10 with a C-terminal streptavidin-binding-peptide tag (S. cerevisiae) (UniProt P42945); assay: affinity purification with mass spectrometry; truncated pre-rRNA mimic with the 5' ETS and all 18S subdomains (5' ETS-18S 3' minor) in strain Y186; tandem purification by MS2-3C-GFP then Utp10-SBP on streptavidin resin; label-free quantification against the mimic lacking the central domain

Row | binding | Molecule
12 | binds | B4
